The results in this text go back to patent US6306832.

By UniProt entry, the sequences of proteins in these tests, tags left out.
UniProt P03372, whole entry: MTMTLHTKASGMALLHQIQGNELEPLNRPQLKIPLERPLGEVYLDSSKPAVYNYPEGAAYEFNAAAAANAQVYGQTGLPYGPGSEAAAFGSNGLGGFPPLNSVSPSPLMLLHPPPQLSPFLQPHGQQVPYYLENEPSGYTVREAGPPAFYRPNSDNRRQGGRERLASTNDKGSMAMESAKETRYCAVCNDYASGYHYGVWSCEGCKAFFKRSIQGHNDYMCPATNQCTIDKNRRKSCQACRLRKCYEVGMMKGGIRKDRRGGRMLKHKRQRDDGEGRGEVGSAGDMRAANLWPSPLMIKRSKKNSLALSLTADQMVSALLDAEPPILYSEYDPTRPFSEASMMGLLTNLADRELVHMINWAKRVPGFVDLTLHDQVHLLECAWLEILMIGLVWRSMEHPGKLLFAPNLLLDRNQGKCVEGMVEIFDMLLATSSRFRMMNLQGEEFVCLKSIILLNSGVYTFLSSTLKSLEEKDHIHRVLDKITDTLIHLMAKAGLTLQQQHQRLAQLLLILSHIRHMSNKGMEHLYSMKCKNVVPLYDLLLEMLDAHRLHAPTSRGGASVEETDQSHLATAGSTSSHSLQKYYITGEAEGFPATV
UniProt P03372, whole entry Y537F: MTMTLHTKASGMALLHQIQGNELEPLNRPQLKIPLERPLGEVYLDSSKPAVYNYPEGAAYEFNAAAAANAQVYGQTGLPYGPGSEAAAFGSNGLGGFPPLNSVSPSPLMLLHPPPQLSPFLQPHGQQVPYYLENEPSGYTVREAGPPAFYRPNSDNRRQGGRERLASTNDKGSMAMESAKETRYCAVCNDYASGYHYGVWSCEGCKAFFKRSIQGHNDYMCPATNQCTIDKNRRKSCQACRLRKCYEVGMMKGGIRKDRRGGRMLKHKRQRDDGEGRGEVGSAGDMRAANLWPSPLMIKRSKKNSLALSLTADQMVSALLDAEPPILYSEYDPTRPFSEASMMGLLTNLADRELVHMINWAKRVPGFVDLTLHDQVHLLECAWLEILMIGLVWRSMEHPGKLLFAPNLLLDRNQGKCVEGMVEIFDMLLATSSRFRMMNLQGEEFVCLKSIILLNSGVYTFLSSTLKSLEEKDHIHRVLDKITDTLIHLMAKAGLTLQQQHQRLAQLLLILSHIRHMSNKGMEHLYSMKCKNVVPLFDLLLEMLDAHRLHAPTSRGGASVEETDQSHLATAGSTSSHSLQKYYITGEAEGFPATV

Series [1] addresses estrogen receptor alpha (ER-wt) (Homo sapiens) (UniProt P03372). Description: EMSA. The settings on record: COS-7 lysate, 100 nM estradiol, 4 C; blocked by 5 uM mY8 peptide; protein in a lysate after overexpression; protein details: expressed from pcDNA3 in COS-7 cells; label: 32P 5'-end (polynucleotide kinase).
The target of series [2] is estrogen receptor alpha Y537F (ER-Y537F) (Homo sapiens) (UniProt P03372). Description: EMSA. Particulars: COS-7 lysate, 100 nM estradiol, 4 C; marked reduction of binding vs wild type; protein in a lysate after overexpression; protein details: expressed from pcDNA3 in COS-7 cells; label: 32P 5'-end (polynucleotide kinase).

Where cells or extracts were used, other partners may take part. For some assays here: The comparison behind a weaker result is the experiment's own reference, which may not be listed here.

As to “GATCCTAGAGGTCACAGTGACCTACGA (double strand) [vitellogenin A2 ERE 27-bp probe]”, the binding result in series [1] is “binds”; in series [2] it was “binds more weakly”.
